In PubChem BioAssay AID1508600 (Functional Genomics Laboratory (NCATS/FGL), 2020) one finds z-score data, which are given here for 107 sequences.

Screen size: about 53,000 sequences; about 3,700 (7%) were called active.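 The calls were made as follows: active = gene knockdowns whose robust z-score for IL-1 alpha signal is at least 2 or at most -2, so actives lie on both sides; inactive = the rest.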 Some of the results follow.

The nature of this assay: Components of the Cytosolic LPS Sensing Pathway: Gene Identification via Genome-wide siRNA Screen.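 Also: robust z of the log signal after scaling to non-targeting control siRNA wells of the plate.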 The conditions noted are these: RAW264.7 macrophages, IL-1a HTRF, actives lie on both sides, screened at 100 nM (by protocol), cells primed 5 h with Pam3CSK4 first. The essentials: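 RAW264.7 mouse macrophages reverse-transfected with single siRNAs (100 nM final) for 48h, primed with Pam3CSK4 for 5 hours, then transfected with LipidA for 24 hour. Supernatant IL-1a read by HTRF; values normalized to negative-control median, log-transformed robust z-scores.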
(In general: TR-FRET usually uses a lanthanide donor and a delayed reading to cut background.)
For the sequence GGAAGGUGGCUAUUUUAAUTT against Acsl3, the z-score was inactive: -0.207.
Turning to GGUGAUUAGCAAUCAUCAGTT against Zfp942, the z-score was inactive: -0.295.
To CCGGUUCGUUCAGAAGGAGTT against Tmem163 belongs inactive: -0.731; to GCACGAUCUUCCAAACCCUTT against Dhh, inactive: -1.25; to GCUGCACCAUCAAUUCCCATT against Vpreb3, inactive: -1.63.
Consider GGGCGUGAUUUAUUUCUACTT against Mfsd6l, for which the z-score is inactive: 1.45.
GGCGGAAAAAGGAUUUCAATT against Zfp595: the z-score was inactive: 1.84.
Turning to GGAGCAUCCUUCAACUUCUTT against Fcrl1, the z-score was inactive: 1.74.
To GCAAAUCGACCACUUUCCGTT against Cacng2 belongs active: 4; to CGAUUUCCUUGGCACCAAUTT against Arhgap1, inactive: -0.675.
The result for GCACAAGUCAAGAGCUACCTT against Cdk20 reads inactive: 0.639; that for GGGUGACACUCUGAACGUATT against Arap1, inactive: -0.952.
The result for GCAACUACGUGUUCGUGUUTT against Rabac1 reads inactive: 1.56.
Regarding GCUAUACGUGGUUUCCUCCTT against Adgrf1, the z-score was inactive: -0.98.
To “GCGAAUCUCCACAAGAUGGTT against 2300002M23Rik” belongs inactive: -0.0187; to GGACGACUUCUACCUCAACTT against Fzr1, inactive: 0.696; to CCUGAAAACACGUAUUGAATT against Igfbp4, inactive: -1.01.
To CCUGGAGAUUAGCUACGCCTT against Nostrin belongs inactive: -1.57; to GGAAGGUACCUACUCACUATT against Gm2a, inactive: 0.0412; to GCCGCCAUGACAGUAAAAGTT against Srsf4, inactive: -1.07.
The result for GGAAGAUGAAAGUUCCAUATT against Ankar reads inactive: 1.17; that for GCUGGACUAAUCGACAGCATT against Inava, inactive: -1.4.
As for GGUUCAAAAGUCGAGCGAATT against Nudt9, the z-score is inactive: -0.137.
Consider GGCAUGAACCAUUCAGUAATT against Ifnar1, for which the z-score is inactive: 0.677.
To GGAGAUCUCAGAGAGUGAGTT against Atn1 belongs active: -2.52.
Turning to GGUUACUGGGUGAUAAGAATT against Mipep, the z-score is inactive: -0.542.
GGCAGUGUACAUCUGGAUATT against Olfr611: the z-score was inactive: 1.85.
For the sequence GGUGUUCUUGAAGUUUAUATT against Zfp157, the z-score is inactive: 0.579.
For the sequence GCCUUUUGAUGCUUCCUCUTT against Rusf1, the z-score is inactive: -0.696.
To GGUGAUCUUUUCUUUCUUUTT against Mkx belongs inactive: 0.986; to GCACAAUACUGUGAUCGAATT against Usp24, inactive: -0.881; to GGGAAAGGUGUUCCAGUUATT against Chchd7, inactive: -0.52.
The result for CCACAAUCUGUUAACUUUGTT against Serpinb10 reads inactive: -0.303.
To GGCUGAUUUUCAGCUAAACTT against Yipf6 belongs inactive: 1.48.
Turning to GGACUGCACAGUUAUGGUGTT against Coro1a, the z-score is inactive: -0.423.
The result for GGCUACUUUCUGAAUUUUCTT against Ror2 reads inactive: 0.0204; that for GCUCUCCUUGCACUUUACATT against Syt4, inactive: -0.461.
To GGGUUCUUGGACAAACAGGTT against Eps15l1 belongs inactive: 0.347; to GGAUUUUGUUGACAAUGAUTT against Ncaph, inactive: -0.0936; to GGAGGAGGGAUCACAAGAATT against Mrpl23, inactive: 0.376.
The result for GGGACCUUUUCAGGACCUUTT against Ucp2 reads inactive: -0.954.
On to GGAACUCAUUCUAUUGCACTT against Sowahd, for which the z-score was inactive: 0.711.
The result for GGCGGAUUCAGUCAGCUUUTT against Trim47 reads inactive: 0.501; that for GGAUCAAUGCACCUUCCAATT against Gpr85, inactive: 1.61.
Consider GUAUGCUGUGAGCCUUGUCTT against Sprr2b, for which the z-score is inactive: -0.591.
The result for GGAUGUAAAAGAGACUGUGTT against Olfr1176 reads inactive: -1.78; that for GCGGCUUAAAGACCUGUUGTT against Sdhc, inactive: -0.571; that for GGUAAUCCGAGCCAACAUUTT against Gpt2, inactive: -0.177.
In the case of CCCACUGGUUAUAAAUGAATT against Cpped1, the z-score was inactive: 0.561.
The result for CCCUUUCGUUCUUUACUUUTT against Olfr506 reads inactive: -0.16; that for CCUGAAGUUUGACUGUUUATT against Adam30, inactive: 0.135; that for GGAGGGAAUGAAAAGUCAATT against Stard7, active: 2.09.
Turning to GGCAAUGGCACUGAAGUCATT against Olfr994, the z-score was inactive: -0.0376.
For CGAAUCCAUGAUAUUGUACTT against Dynlrb2, the z-score is inactive: 0.0744.
Turning to CCAGAUGUGAUCUUAAAACTT against Zfp334, the z-score was inactive: -0.254.
As to GCCAGUCAGAUGUACAGUCTT against Pbx1, the z-score is active: 3.28.
CCUCAAGUUUGCCAUCAGGTT against Hps4: the z-score is inactive: 0.399.
The result for GCUGGUUAAGUCCUAUCACTT against Klrk1 reads inactive: 0.362; that for GUAUUUCCACUUCAUUGUGTT against Dolk, inactive: -1.15.
The result for GGCCUACCUAUAGAAAUGATT against Pgap1 reads inactive: 0.208.
The result for GCUCCUAUGGCAACAUCGUTT against Olfr303 reads active: 2.11; that for “CCCGGGUCAUCAUUUUAAUTT against B830017H08Rik”, inactive: -0.342.
As for CCACUGCUGUUAGGCUUGATT against Olfr810, the z-score is inactive: 0.694.
Turning to GGCAAGAGUGAAUUUAAGATT against Nt5e, the z-score was inactive: -0.292.
On to GGAAAGAUUCCGAACAAUUTT against Rab8b, for which the z-score was active: 2.12.
Take GCAUCAUCGAAUAAUCAUCTT against Egf: the z-score was inactive: 0.213.
To GAAGAGUCCAACAACCAAATT against Mrpl53 belongs inactive: -0.303; to GGAUCUCCGCUCAUCAGAUTT against Slc14a2, inactive: -1.05.
To GGAGAAAUGCCAUUGCGUCTT against Wnt3 belongs inactive: 0.169; to GGCUCUCUUUAGAACAGACTT against Rad17, inactive: 0.479; to CCAACAAUCAUGGUUAAACTT against Cd300ld, inactive: 0.749.
To CGGUCCUCAGAACAUAUACTT against Rnasek belongs inactive: -1.43; to GCAAAUGACUUGCCCAAAUTT against Zfp639, inactive: 0.47; to CCCAGAAGGAUCUGCUCUUTT against Defa20, active: -2.17.
On to GGCUAGCACCAAAUUCUUGTT against Fbxo40, for which the z-score is inactive: 0.985.
To CGUGCAGAUCAACGAUAUUTT against Rps5 belongs inactive: 0.111.
As for UUUUGCUACUAUCUUGAAGTT against Ugt1a10, the z-score is inactive: -0.416.
For the sequence GGACAUUCUGCUACACAAGTT against Bsx, the z-score was active: 2.63.
To GGAACAGCUGUGAUUAACGTT against Prdx4 belongs inactive: 0.343; to CCUUGAAAUACUGAGUGACTT against Tsen2, inactive: -1.12; to GGCUGAACAGCAAAAAAAATT against Foxn4, inactive: 0.289.
Consider UGAAGUCUAAUCAGAGCACTT against Olfr50, for which the z-score was inactive: 0.723.
To CAGGCUGGUUACUUUGGCUTT against Lhfpl5 belongs inactive: -0.246.
On to GGAACUCUGUGGGUGAGAATT against Dock8, for which the z-score was inactive: -1.46.
The result for GGUUUGGUUACAAAAAUACTT against Mmp16 reads inactive: -0.626; that for GUAACUCGCUUCUUGGUGGTT against Slc22a15, inactive: 0.464.
As for GGUUAUUUCCCUGUUUUCATT against Olfr532, the z-score is inactive: 1.5.
Turning to GGGACUUUGGAUUCAAGCGTT against C4a, the z-score was inactive: 0.872.
Consider CGGCUCUUCUUAAAAUUGATT against Rpl35a, for which the z-score was inactive: 0.61.
To CGACUUUGGACAAAAAUUGTT against Kdm2a belongs inactive: 0.638; to CGAGGACUACUAGAAGAAATT against Trpc1, active: 2.36; to GCCAAUUUGAAUGGGAUGUTT against Magohb, active: -2.25.
Turning to UUAACUACAAUCCAUCACUTT against Rcan2, the z-score was inactive: -0.284.
The result for GCACACACAUCAGUAAAUUTT against Olfr1444 reads inactive: -0.817; that for CGAAUGUUGAAUCUUCUUGTT against Ift81, inactive: 0.748; that for GGGAAACAAAUUGUUUGCATT against Dnaaf4, inactive: -0.461.
For CCAAACCAGCACAUUGAAGTT against Il12a, the z-score is inactive: -0.323.
To GGGAAGACGACUGUAAUUGTT against Mrps18a belongs inactive: 0.517; to GGAACUGGAGUUUCUUAGCTT against Anp32e, inactive: 0.0536; to GGUUCACAGAAAUGGAUGATT against Zfp507, active: -2.91.
As to GGUCCUAAAAUUUCCUCUUTT against Prdx3, the z-score was inactive: 0.854.
On to GGAGGAACUGGAUUCUUACTT against Eps8l3, for which the z-score was inactive: -0.348.
To GGUCUUGGUGAGCAUGAGATT against Lnpep belongs inactive: -1.08; to CCCUGAAUAUAUGAAGAGCTT against Rhbdl1, inactive: 0.113.
To GGCCUACGCAUCUUCUACCTT against Mest belongs inactive: -0.658.
The result for CCUCUUCCUGCUAAUCAUUTT against Olfr599 reads inactive: -1.87; that for CCUGUGAAAAUUUUAGUGCTT against Pms1, inactive: -0.208.
